From the supplement of paper PMC10849652
The list shows a part of the results.

The chains behind the UniProt entries cited, without tags or fusion partners. Where a name states a change or a piece, a line headed by the entry shows the natural chain unless it says otherwise.
UniProt Q96G74: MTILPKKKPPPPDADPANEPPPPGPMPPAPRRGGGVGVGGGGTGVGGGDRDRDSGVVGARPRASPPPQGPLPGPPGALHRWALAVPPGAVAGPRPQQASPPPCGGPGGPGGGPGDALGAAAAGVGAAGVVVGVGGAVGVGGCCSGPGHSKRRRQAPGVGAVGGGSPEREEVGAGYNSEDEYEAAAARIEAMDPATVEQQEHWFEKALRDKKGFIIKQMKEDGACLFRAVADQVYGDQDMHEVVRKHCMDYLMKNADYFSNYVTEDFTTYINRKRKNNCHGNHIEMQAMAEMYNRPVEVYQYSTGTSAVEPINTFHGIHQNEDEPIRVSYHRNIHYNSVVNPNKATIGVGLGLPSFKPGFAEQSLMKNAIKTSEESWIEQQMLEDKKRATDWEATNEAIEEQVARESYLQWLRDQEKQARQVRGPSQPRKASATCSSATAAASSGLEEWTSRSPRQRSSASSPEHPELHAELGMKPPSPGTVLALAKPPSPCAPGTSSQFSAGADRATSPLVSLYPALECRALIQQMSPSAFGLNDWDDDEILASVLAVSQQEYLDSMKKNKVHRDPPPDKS
UniProt Q9H1P3, whole entry, looked up: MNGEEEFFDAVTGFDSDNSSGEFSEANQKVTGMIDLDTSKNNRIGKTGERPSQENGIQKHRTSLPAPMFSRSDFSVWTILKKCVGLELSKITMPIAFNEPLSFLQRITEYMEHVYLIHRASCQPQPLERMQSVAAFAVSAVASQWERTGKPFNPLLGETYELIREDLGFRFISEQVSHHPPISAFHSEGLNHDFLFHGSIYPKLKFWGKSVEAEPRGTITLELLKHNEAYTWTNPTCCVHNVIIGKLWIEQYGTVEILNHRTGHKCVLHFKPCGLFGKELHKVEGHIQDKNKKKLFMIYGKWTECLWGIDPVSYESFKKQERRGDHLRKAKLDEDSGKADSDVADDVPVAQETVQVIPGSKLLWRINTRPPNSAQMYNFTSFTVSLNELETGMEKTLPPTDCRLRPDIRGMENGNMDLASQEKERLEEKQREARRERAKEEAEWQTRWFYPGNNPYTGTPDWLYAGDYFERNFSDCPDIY
UniProt Q01804: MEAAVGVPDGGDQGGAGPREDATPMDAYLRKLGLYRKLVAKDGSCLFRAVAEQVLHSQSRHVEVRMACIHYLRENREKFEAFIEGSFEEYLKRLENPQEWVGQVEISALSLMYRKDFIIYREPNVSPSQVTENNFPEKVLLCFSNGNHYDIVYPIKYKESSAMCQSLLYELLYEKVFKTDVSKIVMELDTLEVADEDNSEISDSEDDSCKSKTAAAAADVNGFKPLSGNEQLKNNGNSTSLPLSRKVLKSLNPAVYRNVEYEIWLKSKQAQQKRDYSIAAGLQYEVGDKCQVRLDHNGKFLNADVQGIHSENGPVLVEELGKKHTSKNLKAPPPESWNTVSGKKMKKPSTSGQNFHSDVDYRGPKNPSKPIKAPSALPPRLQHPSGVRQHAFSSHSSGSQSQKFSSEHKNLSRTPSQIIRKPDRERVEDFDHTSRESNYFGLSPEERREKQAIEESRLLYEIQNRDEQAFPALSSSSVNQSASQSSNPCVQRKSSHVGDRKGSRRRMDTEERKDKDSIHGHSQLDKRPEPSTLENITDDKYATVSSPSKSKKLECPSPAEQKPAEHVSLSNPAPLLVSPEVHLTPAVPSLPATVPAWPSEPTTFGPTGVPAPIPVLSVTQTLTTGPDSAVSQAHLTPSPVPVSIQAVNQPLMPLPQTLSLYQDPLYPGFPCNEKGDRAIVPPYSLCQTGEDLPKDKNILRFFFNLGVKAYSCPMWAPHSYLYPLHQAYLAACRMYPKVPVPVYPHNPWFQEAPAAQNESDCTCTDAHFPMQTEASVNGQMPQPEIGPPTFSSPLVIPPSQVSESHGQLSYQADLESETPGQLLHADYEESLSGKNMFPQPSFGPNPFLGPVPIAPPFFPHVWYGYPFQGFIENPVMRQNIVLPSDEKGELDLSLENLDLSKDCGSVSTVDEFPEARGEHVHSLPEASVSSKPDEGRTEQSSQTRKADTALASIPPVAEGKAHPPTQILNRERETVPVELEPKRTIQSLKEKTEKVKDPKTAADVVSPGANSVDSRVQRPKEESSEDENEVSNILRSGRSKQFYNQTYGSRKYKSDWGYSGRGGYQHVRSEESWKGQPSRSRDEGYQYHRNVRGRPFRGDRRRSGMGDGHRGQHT
UniProt Q5SRE5: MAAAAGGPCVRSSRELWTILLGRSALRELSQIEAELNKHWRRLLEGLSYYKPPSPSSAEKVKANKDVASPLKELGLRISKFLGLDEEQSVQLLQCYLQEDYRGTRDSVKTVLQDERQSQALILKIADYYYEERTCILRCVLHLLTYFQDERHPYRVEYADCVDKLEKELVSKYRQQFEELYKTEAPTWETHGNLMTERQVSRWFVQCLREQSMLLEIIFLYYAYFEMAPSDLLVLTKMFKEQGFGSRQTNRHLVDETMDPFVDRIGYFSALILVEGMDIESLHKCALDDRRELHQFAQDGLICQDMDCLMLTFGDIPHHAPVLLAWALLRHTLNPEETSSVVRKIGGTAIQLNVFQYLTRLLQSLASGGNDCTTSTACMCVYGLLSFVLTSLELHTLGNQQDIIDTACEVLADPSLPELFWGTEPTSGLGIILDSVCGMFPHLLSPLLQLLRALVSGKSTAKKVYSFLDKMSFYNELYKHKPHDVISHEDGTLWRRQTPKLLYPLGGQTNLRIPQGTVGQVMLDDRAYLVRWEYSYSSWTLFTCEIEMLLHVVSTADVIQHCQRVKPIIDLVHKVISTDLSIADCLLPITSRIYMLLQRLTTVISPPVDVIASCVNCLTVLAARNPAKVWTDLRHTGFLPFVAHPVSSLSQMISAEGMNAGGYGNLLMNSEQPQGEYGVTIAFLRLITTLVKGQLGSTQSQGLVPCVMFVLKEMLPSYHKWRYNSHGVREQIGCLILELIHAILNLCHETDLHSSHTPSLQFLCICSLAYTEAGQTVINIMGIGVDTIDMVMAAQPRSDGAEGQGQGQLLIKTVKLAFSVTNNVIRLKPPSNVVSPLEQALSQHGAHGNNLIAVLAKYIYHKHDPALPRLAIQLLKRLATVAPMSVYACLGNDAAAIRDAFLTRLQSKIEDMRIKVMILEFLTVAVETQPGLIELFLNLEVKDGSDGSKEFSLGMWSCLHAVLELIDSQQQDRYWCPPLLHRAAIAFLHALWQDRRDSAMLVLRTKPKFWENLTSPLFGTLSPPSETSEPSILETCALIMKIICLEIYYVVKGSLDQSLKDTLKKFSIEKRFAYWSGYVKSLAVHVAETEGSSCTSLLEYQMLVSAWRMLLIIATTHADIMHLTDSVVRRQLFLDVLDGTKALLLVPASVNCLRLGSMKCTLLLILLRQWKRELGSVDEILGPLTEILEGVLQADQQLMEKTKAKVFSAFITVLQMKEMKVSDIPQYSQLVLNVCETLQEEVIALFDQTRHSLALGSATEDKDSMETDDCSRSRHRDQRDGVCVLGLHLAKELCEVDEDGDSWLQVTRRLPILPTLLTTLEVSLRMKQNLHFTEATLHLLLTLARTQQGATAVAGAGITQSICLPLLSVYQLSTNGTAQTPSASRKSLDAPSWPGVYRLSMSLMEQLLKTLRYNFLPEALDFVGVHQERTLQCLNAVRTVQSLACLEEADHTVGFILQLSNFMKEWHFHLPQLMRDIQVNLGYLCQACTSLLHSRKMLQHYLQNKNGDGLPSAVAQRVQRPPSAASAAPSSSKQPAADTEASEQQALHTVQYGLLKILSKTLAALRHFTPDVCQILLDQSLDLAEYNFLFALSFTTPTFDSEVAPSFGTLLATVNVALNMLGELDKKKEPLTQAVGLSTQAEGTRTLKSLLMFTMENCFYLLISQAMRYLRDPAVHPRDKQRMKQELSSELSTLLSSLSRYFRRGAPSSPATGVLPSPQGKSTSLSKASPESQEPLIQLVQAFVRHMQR
UniProt Q96FW1, whole entry, looked up: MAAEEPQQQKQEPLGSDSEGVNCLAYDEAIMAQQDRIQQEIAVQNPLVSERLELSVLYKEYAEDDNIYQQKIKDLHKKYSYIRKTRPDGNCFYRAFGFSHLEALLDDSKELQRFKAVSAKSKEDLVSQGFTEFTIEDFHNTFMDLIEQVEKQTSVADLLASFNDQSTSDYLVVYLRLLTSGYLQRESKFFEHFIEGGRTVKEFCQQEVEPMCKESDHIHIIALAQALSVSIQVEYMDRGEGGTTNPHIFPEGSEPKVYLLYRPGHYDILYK
UniProt Q9BZF1: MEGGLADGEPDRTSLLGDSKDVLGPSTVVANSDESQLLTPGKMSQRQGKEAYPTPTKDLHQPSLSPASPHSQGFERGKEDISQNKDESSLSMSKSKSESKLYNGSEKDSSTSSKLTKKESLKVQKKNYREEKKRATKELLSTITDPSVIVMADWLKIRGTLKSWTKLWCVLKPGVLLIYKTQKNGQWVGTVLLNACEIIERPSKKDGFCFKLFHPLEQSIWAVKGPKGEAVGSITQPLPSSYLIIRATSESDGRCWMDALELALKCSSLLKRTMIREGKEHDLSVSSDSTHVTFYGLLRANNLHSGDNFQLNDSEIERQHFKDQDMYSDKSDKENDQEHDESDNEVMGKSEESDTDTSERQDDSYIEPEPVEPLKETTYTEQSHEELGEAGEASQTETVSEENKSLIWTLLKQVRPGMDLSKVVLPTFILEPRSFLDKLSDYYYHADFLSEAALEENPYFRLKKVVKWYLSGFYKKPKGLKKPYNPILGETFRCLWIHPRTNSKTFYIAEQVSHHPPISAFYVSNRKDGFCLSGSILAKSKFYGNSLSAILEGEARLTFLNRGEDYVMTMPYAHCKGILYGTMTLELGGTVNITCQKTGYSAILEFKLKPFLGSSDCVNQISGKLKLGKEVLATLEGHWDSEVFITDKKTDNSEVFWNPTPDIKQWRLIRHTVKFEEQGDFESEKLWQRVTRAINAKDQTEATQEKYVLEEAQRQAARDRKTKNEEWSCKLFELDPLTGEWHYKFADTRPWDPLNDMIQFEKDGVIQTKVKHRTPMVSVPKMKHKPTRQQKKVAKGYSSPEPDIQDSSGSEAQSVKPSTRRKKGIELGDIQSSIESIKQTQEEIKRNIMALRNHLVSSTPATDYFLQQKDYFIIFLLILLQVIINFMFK
UniProt Q9BZF3: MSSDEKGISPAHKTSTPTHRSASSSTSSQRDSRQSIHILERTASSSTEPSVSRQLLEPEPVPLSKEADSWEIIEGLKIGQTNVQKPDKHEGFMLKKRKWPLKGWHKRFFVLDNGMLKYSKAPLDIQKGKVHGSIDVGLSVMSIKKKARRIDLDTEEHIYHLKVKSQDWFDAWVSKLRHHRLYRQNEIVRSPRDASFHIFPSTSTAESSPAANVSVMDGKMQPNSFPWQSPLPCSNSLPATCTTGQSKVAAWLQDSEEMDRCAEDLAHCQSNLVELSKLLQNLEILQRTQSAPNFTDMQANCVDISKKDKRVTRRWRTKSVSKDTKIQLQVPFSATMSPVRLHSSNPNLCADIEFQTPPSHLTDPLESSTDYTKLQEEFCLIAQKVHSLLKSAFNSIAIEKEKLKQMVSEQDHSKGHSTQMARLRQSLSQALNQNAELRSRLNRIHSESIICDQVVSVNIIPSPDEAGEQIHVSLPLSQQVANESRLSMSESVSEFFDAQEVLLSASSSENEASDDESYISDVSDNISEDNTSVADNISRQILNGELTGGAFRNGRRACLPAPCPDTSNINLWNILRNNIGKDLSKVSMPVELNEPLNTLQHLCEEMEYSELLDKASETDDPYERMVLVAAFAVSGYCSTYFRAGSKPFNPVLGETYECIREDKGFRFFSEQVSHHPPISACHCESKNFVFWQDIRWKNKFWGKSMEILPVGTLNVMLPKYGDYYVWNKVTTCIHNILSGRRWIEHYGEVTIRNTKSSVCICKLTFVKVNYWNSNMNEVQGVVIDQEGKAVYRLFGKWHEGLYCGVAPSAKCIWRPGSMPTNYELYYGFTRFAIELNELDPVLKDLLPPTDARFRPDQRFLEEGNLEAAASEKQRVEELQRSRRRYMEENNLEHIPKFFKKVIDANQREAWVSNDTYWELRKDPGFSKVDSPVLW
UniProt P43034: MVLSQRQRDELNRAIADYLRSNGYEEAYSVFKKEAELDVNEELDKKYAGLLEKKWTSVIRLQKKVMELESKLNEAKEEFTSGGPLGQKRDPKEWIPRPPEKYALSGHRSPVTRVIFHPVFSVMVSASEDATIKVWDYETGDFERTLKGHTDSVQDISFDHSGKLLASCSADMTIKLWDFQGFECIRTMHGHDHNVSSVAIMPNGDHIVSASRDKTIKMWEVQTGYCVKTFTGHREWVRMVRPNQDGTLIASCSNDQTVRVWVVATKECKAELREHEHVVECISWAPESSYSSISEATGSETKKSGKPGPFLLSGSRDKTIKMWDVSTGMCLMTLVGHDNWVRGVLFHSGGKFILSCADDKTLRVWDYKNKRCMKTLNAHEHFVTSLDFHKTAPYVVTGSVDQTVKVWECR
UniProt O75459: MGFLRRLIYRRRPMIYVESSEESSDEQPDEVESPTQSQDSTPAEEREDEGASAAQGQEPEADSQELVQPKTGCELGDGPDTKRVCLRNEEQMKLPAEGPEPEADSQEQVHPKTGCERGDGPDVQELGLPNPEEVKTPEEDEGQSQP

What was measured:
Assay in all cases: log2 fold change, soluble protein after heating vs DMSO (PISA); higher = thermal stabilisation; K562 lysate, 10 uM; active = over 0.2 and 3.5 SD of the protein, either way, in both replicates (recomputed)
vemurafenib = compound: CCCS(=O)(=O)Nc1ccc(F)c(C(=O)c2c[nH]c3ncc(-c4ccc(Cl)cc4)cc23)c1F [vemurafenib]
Method in brief: (§1)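 Quantification was by TMTpro 16plex LC-MS/MS with equalised channel sums, applied to the supernatant after 21,000xg for 90 min. Samples were crude K562 extract at 1 mg/mL protein in PBS pH 7.4 with 1 mM MgCl2, treated with 10 μM compound for 30 min, heated for 3 min across 48°C-58°C, pooled and brought to 0.5% NP-40 at 4°C. Values are log-two fold changes in thermal stability relative to solvent controls, from duplicates.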

[1] = compound: CCCS(=O)(=O)Nc1ccc(F)c(C(=O)c2c[nH]c3ncc(Cl)cc23)c1F
Method in brief: as §1

barasertib = compound: CCN(CCCOc1ccc2c(Nc3cc(CC(=O)Nc4cccc(F)c4)[nH]n3)ncnc2c1)CCOP(=O)(O)O [barasertib]
Method in brief: as §1

[2] = compound: CC[C@@H]1C(=O)N(C)c2cnc(Nc3ccc(C(=O)NC4CCN(C)CC4)cc3OC)nc2N1C1CCCC1
Method in brief: as §1

volasertib = compound: CC[C@@H]1C(=O)N(C)c2cnc(Nc3ccc(C(=O)N[C@H]4CC[C@H](N5CCN(CC6CC6)CC5)CC4)cc3OC)nc2N1C(C)C [volasertib]
Method in brief: as §1

[3] = compound: CCn1c(C(=O)N(C2CC2)C2CC2)cc2c3c(ncn3C)c(Nc3cc(C)n(C)n3)nc21
Method in brief: as §1

[4] = compound: CCn1cc(-c2ccnc3[nH]c(-c4cccc(CN(C)C)c4)cc23)c(-c2ccc(NC(=O)N(C)C)cc2)n1
Method in brief: as §1

[5] = compound: CN1CCC(CNc2ccc3ncc(-c4cccc(OC(F)(F)F)c4)n3n2)CC1
Method in brief: as §1

saracatinib = compound: CN1CCN(CCOc2cc(OC3CCOCC3)c3c(Nc4c(Cl)ccc5c4OCO5)ncnc3c2)CC1 [saracatinib]
Method in brief: as §1

sotrastaurin = compound: CN1CCN(c2nc(C3=C(c4c[nH]c5ccccc45)C(=O)NC3=O)c3ccccc3n2)CC1 [sotrastaurin]
Method in brief: as §1

alvocidib = compound: CN1CC[C@H](c2c(O)cc(O)c3c(=O)cc(-c4ccccc4Cl)oc23)[C@H](O)C1 [alvocidib]
Method in brief: as §1

Tubastatin A = compound: CN1CCc2c(c3ccccc3n2Cc2ccc(C(=O)NO)cc2)C1 [Tubastatin A]
Method in brief: as §1

[6] = compound: CNC(=O)C1=CC=CC=C1NC2=NC(=NC=C2Cl)NC3=C(C=C(C=C3)N4CCOCC4)OC
Method in brief: as §1

defactinib = compound: CNC(=O)c1ccc(Nc2ncc(C(F)(F)F)c(NCc3nccnc3N(C)S(C)(=O)=O)n2)cc1 [defactinib]
Method in brief: as §1

[7] = compound: CNc1nc(-c2ccc3c(N)n[nH]c3c2)cc(N2C[C@@H](C(=O)NC3CCCCC3)CC[C@H]2C)n1
Method in brief: as §1

encorafenib = compound: COC(=O)N[C@@H](C)CNc1nccc(-c2cn(C(C)C)nc2-c2cc(Cl)cc(NS(C)(=O)=O)c2F)n1 [encorafenib]
Method in brief: as §1

[8] = compound: COC(=O)[C@H](CCSC)NC(=O)C1=C(C=C(C=C1)NC[C@H](CS)N)C2=CC=CC=C2
Method in brief: as §1

alisertib = compound: COc1cc(Nc2ncc3c(n2)-c2ccc(Cl)cc2C(c2c(F)cccc2OC)=NC3)ccc1C(=O)O [alisertib]
Method in brief: as §1

[9] = compound: COc1cc2nc(-c3cc(F)ccc3O)nc(N[C@@H]3CNC[C@H]3C(C)(C)O)c2cc1OC
Method in brief: as §1

gefitinib = compound: COc1cc2ncnc(Nc3ccc(F)c(Cl)c3)c2cc1OCCCN1CCOCC1 [gefitinib]
Method in brief: as §1

Measured: log2 fold change

OTUD5 isoform 5 (UniProt Q96G74)
inactive: vemurafenib -0.002 | [1] 0.062 | barasertib -0.012 | [2] 0.082 | volasertib 0.013 | [3] -0.028 | [4] -0.03 | [5] -0.004 | saracatinib -0.041 | sotrastaurin 0.036 | alvocidib -0.037 | Tubastatin A 0.031 | [6] 0.048 | defactinib -0.002 | [7] 0.062 | encorafenib 0.008 | [8] -0.029 | alisertib -0.03 | [9] 0.027 | gefitinib -0.006

PAK4 (UniProt O96013)
inactive: vemurafenib -0.016 | [1] -0.06 | barasertib -0.005 | [2] -0.131 | volasertib -0.134 | [3] 0.259 | [4] 0.02 | [5] 0.3 | saracatinib -0.018 | sotrastaurin 0.063 | alvocidib -0.019 | Tubastatin A -0.038 | [6] 0.27 | defactinib 0.441 | [7] -0.021 | encorafenib -0.173 | [8] -0.057 | alisertib 0.002 | [9] 0.241 | gefitinib -0.027

OSBPL2 (UniProt Q9H1P3)
inactive: vemurafenib 0.026 | [1] -0.061 | barasertib 0.029 | [2] -0.048 | volasertib -0.103 | [3] 0.044 | [4] -0.227 | [5] -0.033 | saracatinib 0.01 | sotrastaurin -0.014 | alvocidib 0.01 | Tubastatin A -0.099 | [6] -0.009 | defactinib 0.023 | [7] -0.089 | encorafenib 0 | [8] 0.073 | alisertib -0.146 | [9] 0.047 | gefitinib 0

OTUD4 (UniProt Q01804)
inactive: vemurafenib 0.089 | [1] 0.034 | barasertib 0.001 | [2] -0.002 | volasertib -0.055 | [3] 0.011 | [4] -0.064 | [5] 0.018 | saracatinib 0.046 | sotrastaurin 0.065 | alvocidib 0.043 | Tubastatin A -0.051 | [6] -0.044 | defactinib 0.002 | [7] 0.016 | encorafenib 0.004 | [8] 0.061 | alisertib 0.003 | [9] 0.019 | gefitinib -0.02

ORC5 (UniProt O43913)
inactive: vemurafenib -0.059 | [1] -0.001 | barasertib -0.052 | [2] -0.156 | volasertib -0.023 | [3] 0.013 | [4] -0.038 | [5] 0.01 | saracatinib -0.001 | sotrastaurin 0.024 | alvocidib 0.001 | Tubastatin A -0.163 | [6] 0.001 | defactinib 0.062 | [7] -0.008 | encorafenib 0.049 | [8] 0.165 | alisertib -0.004 | [9] 0.006 | gefitinib -0.011

NUP188 (UniProt Q5SRE5)
inactive: vemurafenib -0.006 | [1] -0.006 | barasertib 0.074 | [2] -0.067 | volasertib -0.077 | [3] 0.05 | [4] -0.031 | [5] -0.045 | saracatinib 0.029 | sotrastaurin 0.021 | alvocidib 0.004 | Tubastatin A -0.049 | [6] -0.018 | defactinib 0.038 | [7] -0.016 | encorafenib -0.045 | [8] 0.043 | alisertib -0.007 | [9] 0.025 | gefitinib 0.011

OTUB1 (UniProt Q96FW1)
inactive: vemurafenib 0.016 | [1] -0.018 | barasertib 0.021 | [2] -0.016 | volasertib 0.018 | [3] -0.01 | [4] -0.047 | [5] 0.023 | saracatinib -0.03 | sotrastaurin -0.001 | alvocidib 0.002 | Tubastatin A 0.037 | [6] 0.006 | defactinib -0.008 | [7] -0.01 | encorafenib -0.019 | [8] 0.009 | alisertib 0.029 | [9] -0.008 | gefitinib -0.044

PACS1 (UniProt Q6VY07)
inactive: vemurafenib 0.005 | [1] -0.033 | barasertib 0.033 | [2] 0.003 | volasertib 0.009 | [3] 0.02 | [4] -0.044 | [5] 0.022 | saracatinib 0.032 | sotrastaurin 0.016 | alvocidib 0.015 | Tubastatin A 0.001 | [6] 0.057 | defactinib 0.002 | [7] -0.011 | encorafenib -0.014 | [8] -0.012 | alisertib 0.067 | [9] -0.017 | gefitinib 0.061

NUP58 (UniProt Q9BVL2)
inactive: vemurafenib 0.014 | [1] -0.017 | barasertib 0.052 | [2] 0.094 | volasertib 0.024 | [3] 0.033 | [4] -0.107 | [5] 0.073 | saracatinib -0.018 | sotrastaurin 0 | alvocidib -0.031 | Tubastatin A 0.059 | [6] -0.012 | defactinib -0.033 | [7] -0.003 | encorafenib -0.018 | [8] -0.056 | alisertib 0.009 | [9] 0.034 | gefitinib 0.115

NXF1 (UniProt Q9UBU9)
inactive: vemurafenib -0.024 | [1] -0.005 | barasertib 0.061 | [2] -0.001 | volasertib -0.074 | [3] -0.017 | [4] 0.364 | [5] -0.149 | saracatinib 0.029 | sotrastaurin 0.001 | alvocidib 0.027 | Tubastatin A -0.096 | [6] 0.083 | defactinib -0.034 | [7] 0.038 | encorafenib -0.001 | [8] 0.17 | alisertib 0 | [9] 0.057 | gefitinib -0.017

4 neighbouring records already listed, for reference:
ORC5 (UniProt O43913)
inactive: vemurafenib -0.059 | [1] -0.001 | barasertib -0.052 | [2] -0.156 | volasertib -0.023 | [3] 0.013 | [4] -0.038 | [5] 0.01 | saracatinib -0.001 | sotrastaurin 0.024 | alvocidib 0.001 | Tubastatin A -0.163 | [6] 0.001 | defactinib 0.062 | [7] -0.008 | encorafenib 0.049 | [8] 0.165 | alisertib -0.004 | [9] 0.006 | gefitinib -0.011

NUP188 (UniProt Q5SRE5)
inactive: vemurafenib -0.006 | [1] -0.006 | barasertib 0.074 | [2] -0.067 | volasertib -0.077 | [3] 0.05 | [4] -0.031 | [5] -0.045 | saracatinib 0.029 | sotrastaurin 0.021 | alvocidib 0.004 | Tubastatin A -0.049 | [6] -0.018 | defactinib 0.038 | [7] -0.016 | encorafenib -0.045 | [8] 0.043 | alisertib -0.007 | [9] 0.025 | gefitinib 0.011

OTUB1 (UniProt Q96FW1)
inactive: vemurafenib 0.016 | [1] -0.018 | barasertib 0.021 | [2] -0.016 | volasertib 0.018 | [3] -0.01 | [4] -0.047 | [5] 0.023 | saracatinib -0.03 | sotrastaurin -0.001 | alvocidib 0.002 | Tubastatin A 0.037 | [6] 0.006 | defactinib -0.008 | [7] -0.01 | encorafenib -0.019 | [8] 0.009 | alisertib 0.029 | [9] -0.008 | gefitinib -0.044

PACS1 (UniProt Q6VY07)
inactive: vemurafenib 0.005 | [1] -0.033 | barasertib 0.033 | [2] 0.003 | volasertib 0.009 | [3] 0.02 | [4] -0.044 | [5] 0.022 | saracatinib 0.032 | sotrastaurin 0.016 | alvocidib 0.015 | Tubastatin A 0.001 | [6] 0.057 | defactinib 0.002 | [7] -0.011 | encorafenib -0.014 | [8] -0.012 | alisertib 0.067 | [9] -0.017 | gefitinib 0.061

Next records follow.

OSBPL8 (UniProt Q9BZF1)
inactive: vemurafenib 0.006 | [1] -0.017 | barasertib 0.057 | [2] 0.054 | volasertib -0.009 | [3] -0.013 | [4] 0.012 | [5] -0.1 | saracatinib -0.019 | sotrastaurin 0.025 | alvocidib 0.027 | Tubastatin A -0.021 | [6] 0.011 | defactinib 0.054 | [7] 0.035 | encorafenib 0.07 | [8] 0.07 | alisertib 0.001 | [9] 0.072 | gefitinib 0.029

OSBPL6 isoform 5 (UniProt Q9BZF3)
inactive: vemurafenib -0.026 | [1] -0.021 | barasertib -0.015 | [2] -0.052 | volasertib -0.072 | [3] 0.015 | [4] -0.004 | [5] 0.084 | saracatinib -0.009 | sotrastaurin -0.035 | alvocidib -0.056 | Tubastatin A -0.05 | [6] -0.043 | defactinib -0.063 | [7] -0.047 | encorafenib -0.005 | [8] 0.015 | alisertib -0.068 | [9] -0.004 | gefitinib 0.164

PAFAH1B1 (UniProt P43034)
inactive: vemurafenib 0.011 | [1] 0.013 | barasertib -0.019 | [2] 0.01 | volasertib 0.013 | [3] 0.011 | [4] 0.093 | [5] -0.054 | saracatinib -0.003 | sotrastaurin 0.018 | alvocidib 0.038 | Tubastatin A 0.02 | [6] -0.001 | defactinib -0.006 | [7] -0.011 | encorafenib -0.004 | [8] -0.058 | alisertib -0.018 | [9] -0.01 | gefitinib -0.014

OPA3 (UniProt Q9H6K4)
inactive: vemurafenib -0.052 | [1] 0.082 | barasertib 0.095 | [2] 0.026 | volasertib 0.063 | [3] -0.093 | [4] 0.05 | [5] -0.068 | saracatinib 0.01 | sotrastaurin -0.041 | alvocidib -0.047 | Tubastatin A -0.093 | [6] -0.055 | defactinib -0.018 | [7] 0.036 | encorafenib 0.007 | [8] 0.132 | alisertib 0.004 | [9] -0.162 | gefitinib 0.13

NUP43 (UniProt Q8NFH3)
inactive: vemurafenib 0.007 | [1] 0.027 | barasertib -0.019 | [2] 0.081 | volasertib 0.009 | [3] -0.036 | [4] -0.099 | [5] 0.06 | saracatinib 0.012 | sotrastaurin 0.004 | alvocidib -0.003 | Tubastatin A 0.019 | [6] 0.018 | defactinib -0.022 | [7] 0.055 | encorafenib -0.003 | [8] -0.041 | alisertib 0.023 | [9] 0.013 | gefitinib -0.041

PAGE1 (UniProt O75459)
inactive: vemurafenib 0.026 | [1] -0.016 | barasertib -0.064 | [2] 0.08 | volasertib 0.071 | [3] -0.019 | [4] -0.013 | [5] -0.004 | saracatinib 0.028 | sotrastaurin 0.05 | alvocidib 0.048 | Tubastatin A 0.069 | [6] -0.01 | defactinib -0.047 | [7] 0.018 | encorafenib 0.017 | [8] -0.2 | alisertib 0.008 | [9] -0.028 | gefitinib -0.019
